Laboratory results as given in PMC3441895.
These are yes or no findings as the source states them, for the method shown. In cells and extracts the contact can be indirect. These calls come from enrichment with a bait or labelling near it, and not all partners need be listed. Sequences can lack the tags named with a protein.

The chains behind the UniProt entries cited, without tags or fusion partners.
UniProt P38249: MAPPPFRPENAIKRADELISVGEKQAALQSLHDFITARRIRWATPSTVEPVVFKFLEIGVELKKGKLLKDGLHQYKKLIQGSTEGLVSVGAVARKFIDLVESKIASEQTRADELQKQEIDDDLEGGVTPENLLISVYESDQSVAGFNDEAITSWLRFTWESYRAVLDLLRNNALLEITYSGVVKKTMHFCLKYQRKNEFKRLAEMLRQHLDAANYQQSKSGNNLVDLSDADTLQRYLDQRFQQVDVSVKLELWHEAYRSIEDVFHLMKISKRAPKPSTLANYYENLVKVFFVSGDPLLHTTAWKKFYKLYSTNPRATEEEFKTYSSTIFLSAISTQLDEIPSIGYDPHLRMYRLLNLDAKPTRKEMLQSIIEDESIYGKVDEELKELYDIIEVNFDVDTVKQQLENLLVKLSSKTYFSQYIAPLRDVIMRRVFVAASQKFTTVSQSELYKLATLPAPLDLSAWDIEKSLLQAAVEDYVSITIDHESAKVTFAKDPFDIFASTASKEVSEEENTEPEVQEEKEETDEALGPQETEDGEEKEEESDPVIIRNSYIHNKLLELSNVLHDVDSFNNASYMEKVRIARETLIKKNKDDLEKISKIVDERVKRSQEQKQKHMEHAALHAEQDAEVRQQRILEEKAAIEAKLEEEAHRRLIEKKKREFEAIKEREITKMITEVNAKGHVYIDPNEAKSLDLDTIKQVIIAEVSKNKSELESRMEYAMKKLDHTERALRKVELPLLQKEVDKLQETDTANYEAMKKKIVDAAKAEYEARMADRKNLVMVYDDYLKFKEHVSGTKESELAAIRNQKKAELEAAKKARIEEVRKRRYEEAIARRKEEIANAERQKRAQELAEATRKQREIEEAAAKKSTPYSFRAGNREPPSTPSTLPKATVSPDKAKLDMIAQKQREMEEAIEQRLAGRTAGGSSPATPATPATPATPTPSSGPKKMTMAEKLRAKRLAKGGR
UniProt P07260: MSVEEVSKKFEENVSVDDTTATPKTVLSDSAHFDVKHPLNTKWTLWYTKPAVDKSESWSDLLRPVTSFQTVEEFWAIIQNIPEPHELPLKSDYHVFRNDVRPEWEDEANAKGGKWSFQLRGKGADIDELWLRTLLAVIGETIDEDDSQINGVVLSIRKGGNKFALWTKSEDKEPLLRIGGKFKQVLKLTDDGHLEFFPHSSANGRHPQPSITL

T1: TAP-tagged Yhr087wp (S. cerevisiae) (UniProt P38804)
T1 sequence: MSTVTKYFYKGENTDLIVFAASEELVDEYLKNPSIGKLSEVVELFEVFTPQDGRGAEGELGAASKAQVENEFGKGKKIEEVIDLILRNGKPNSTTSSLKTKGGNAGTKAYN


Target: T1, TAP-tagged Yhr087wp (S. cerevisiae)
Experiment: affinity purification with mass spectrometry; tandem affinity purification of Yhr087wp-TAP (IgG Sepharose, then calmodulin) from 6 L of exponential YPD culture transferred for 90 min to YP20; associated proteins identified by mass spectrometry (Protein Pilot and MASCOT)

Molecule	binding
Tif32p (from UniProt P38249 1-964)	binds
Cdc33p (from UniProt P07260 1-213)	binds
Atp7p (protein, UniProt P30902 1-174) MSLAKSAANKLDWAKVISSLRITGSTATQLSSFKKRNDEARRQLLELQSQPTEVDFSHYRSVLKNTSVIDKIESYVKQYKPVKIDASKQLQVIESFEKHAMTNAKETESLVSKELKDLQSTLDNIQSARPFDELTVDDLTKIKPEIDAKVEEMVKKGKWDVPGYKDRFGNLNVM	binds
Tif4631p (protein, UniProt P39935 1-952) MTDETAHPTQSASKQESAALKQTGDDQQESQQQRGYTNYNNGSNYTQKKPYNSNRPHQQRGGKFGPNRYNNRGNYNGGGSFRGGHMGANSSNVPWTGYYNNYPVYYQPQQMAAAGSAPANPIPVEEKSPVPTKIEITTKSGEHLDLKEQHKAKLQSQERSTVSPQPESKLKETSDSTSTSTPTPTPSTNDSKASSEENISEAEKTRRNFIEQVKLRKAALEKKRKEQLEGSSGNNNIPMKTTPENVEEKGSDKPEVTEKTKPAEEKSAEPEVKQETPAEEGEQGEKGQIKEESTPKVLTFAERLKLKKQQKEREEKTEGKENKEVPVQEETKSAIESAPVPPSEQVKEETEVAETEQSNIDESATTPAIPTKSDEAEAEVEAEAGDAGTKIGLEAEIETTTDETDDGTNTVSHILNVLKDATPIEDVFSFNYPEGIEGPDIKYKKEHVKYTYGPTFLLQFKDKLNVKADAEWVQSTASKIVIPPGMGRGNRSRDSGRFGNNSSRGHDFRNTSVRNMDDRANSRTSSKRRSKRMNDDRRSNRSYTSRRDRERGSYRNEEKREDDKPKEEVAPLVPSANRWVPKFKSKKTEKKLAPDGKTELLDKDEVERKMKSLLNKLTLEMFDAISSEILAIANISVWETNGETLKAVIEQIFLKACDEPHWSSMYAQLCGKVVKELNPDITDETNEGKTGPKLVLHYLVARCHAEFDKGWTDKLPTNEDGTPLEPEMMSEEYYAAASAKRRGLGLVRFIGFLYRLNLLTGKMMFECFRRLMKDLTDSPSEETLESVVELLNTVGEQFETDSFRTGQATLEGSQLLDSLFGILDNIIQTAKISSRIKFKLIDIKELRHDKNWNSDKKDNGPKTIQQIHEEEERQRQLKNNSRSNSRRTNNSSNRHSFRRDAPPASKDSFITTRTYSQRNSQRAPPPKEEPAAPTSTATNMFSALMGESDDEE	binds
Osh7p (protein, UniProt P38755 1-437) MALNKLKNIPSLTNSSHSSINGIASNAANSKPSGADTDDIDENDESGQSILLNIISQLKPGCDLSRITLPTFILEKKSMLERITNQLQFPDVLLEAHSNKDGLQRFVKVVAWYLAGWHIGPRAVKKPLNPILGEHFTAYWDLPNKQQAFYIAEQTSHHPPESAYFYMIPESNIRVDGVVVPKSKFLGNSSAAMMEGLTVLQFLDIKDANGKPEKYTLSQPNVYARGILFGKMRIELGDHMVIMGPKYQVDIEFKTKGFISGTYDAIEGTIKDYDGKEYYQISGKWNDIMYIKDLREKSSKKTVLFDTHQHFPLAPKVRPLEEQGEYESRRLWKKVTDALAVRDHEVATEEKFQIENRQRELAKKRAEDGVEFHSKLFRRAEPGEDLDYYIYKHIPEGTDKHEEQIRSILETAPILPGQTFTEKFSIPAYKKHGIQKN	binds
Cmk1p (protein, UniProt P27466 1-446) MDDKVSEKESSPKQTEEDSEGKMAHVQPASYVNKKKYVFGKTLGAGTFGVVRQAKNTETGEDVAVKILIKKALKGNKVQLEALYDELDILQRLHHPNIVAFKDWFESKDKFYIITQLAKGGELFDRILKKGKFTEEDAVRILVEILSAVKYMHSQNIVHRDLKPENLLYIDKSDESPLVVADFGIAKRLKSDEELLYKPAGSLGYVAPEVLTQDGHGKPCDIWSIGVITYTLLCGYSAFRAERVQDFLDECTTGEYPVKFHRPYWDSVSNKAKQFILKALNLDPSKRPTAAELLEDPWIICTELKTHNLLPGLKEGLDARQKFRNSVERVRLNMKIQKLRDLYLEQTESDSDFDEGSQANGSVPPLKATDTSQLSKKLSEEEQSKLKSELTSKAFAQLVNTVLAEKEKFLNINRVCSSDSDLPGSDIKSLDEAKEKPEGKDTKTEE	binds
Cmk2p (protein, UniProt P22517 1-447) MPKESEVINSEFHVDVQDPERLNGHPVAKFINKLSGQPESYVNRTNYIFGRTLGAGSFGVVRQARKLSTNEDVAIKILLKKALQGNNVQLQMLYEELSILQKLSHPNIVSFKDWFESKDKFYIVTQLATGGELFDRILSRGKFTEVDAVEIIVQILGAVEYMHSKNVVHRDLKPENVLYVDKSENSPLVIADFGIAKQLKGEEDLIYKAAGSLGYVAPEVLTQDGHGKPCDIWSIGVITYTLLCGYSPFIAESVEGFMEECTASRYPVTFHMPYWDNISIDVKRFILKALRLNPADRPTATELLDDPWITSKRVETSNILPDVKKGFSLRKKLRDAIEIVKLNNRIKRLRNMYSLGDDGDNDIEENSLNESLLDGVTHSLDDLRLQSQKKGGELTEEQMKLKSALTKDAFVQIVKAATKNKHKVLAGEEEDDSKKTLHDDRESKSED	binds
Sti1p (protein, UniProt P15705 1-589) MSLTADEYKQQGNAAFTAKDYDKAIELFTKAIEVSETPNHVLYSNRSACYTSLKKFSDALNDANECVKINPSWSKGYNRLGAAHLGLGDLDEAESNYKKALELDASNKAAKEGLDQVHRTQQARQAQPDLGLTQLFADPNLIENLKKNPKTSEMMKDPQLVAKLIGYKQNPQAIGQDLFTDPRLMTIMATLMGVDLNMDDINQSNSMPKEPETSKSTEQKKDAEPQSDSTTSKENSSKAPQKEESKESEPMEVDEDDSKIEADKEKAEGNKFYKARQFDEAIEHYNKAWELHKDITYLNNRAAAEYEKGEYETAISTLNDAVEQGREMRADYKVISKSFARIGNAYHKLGDLKKTIEYYQKSLTEHRTADILTKLRNAEKELKKAEAEAYVNPEKAEEARLEGKEYFTKSDWPNAVKAYTEMIKRAPEDARGYSNRAAALAKLMSFPEAIADCNKAIEKDPNFVRAYIRKATAQIAVKEYASALETLDAARTKDAEVNNGSSAREIDQLYYKASQQRFQPGTSNETPEETYQRAMKDPEVAAIMQDPVMQSILQQAQQNPAALQEHMKNPEVFKKIQTLIAAGIIRTGR	binds
Tfg1p (protein, UniProt P41895 1-735) MSRRNPPGSRNGGGPTNASPFIKRDRMRRNFLRMRMGQNGSNSSSPGVPNGDNSRGSLVKKDDPEYAEEREKMLLQIGVEADAGRSNVKVKDEDPNEYNEFPLRAIPKEDLENMRTHLLKFQSKKKINPVTDFHLPVRLHRKDTRNLQFQLTRAEIVQRQKEISEYKKKAEQERSTPNSGGMNKSGTVSLNNTVKDGSQTPTVDSVTKDNTANGVNSSIPTVTGSSVPPASPTTVSAVESNGLSNGSTSAANGLDGNASTANLANGRPLVTKLEDAGPAEDPTKVGMVKYDGKEVTNEPEFEEGTMDPLADVAPDGGGRAKRGNLRRKTRQLKVLDENAKKLRFEEFYPWVMEDFDGYNTWVGSYEAGNSDSYVLLSVEDDGSFTMIPADKVYKFTARNKYATLTIDEAEKRMDKKSGEVPRWLMKHLDNIGTTTTRYDRTRRKLKAVADQQAMDEDDRDDNSEVELDYDEEFADDEEAPIIDGNEQENKESEQRIKKEMLQANAMGLRDEEAPSENEEDELFGEKKIDEDGERIKKALQKTELAALYSSDENEINPYLSESDIENKENESPVKKEEDSDTLSKSKRSSPKKQQKKATNAHVHKEPTLRVKSIKNCVIILKGDKKILKSFPEGEWNPQTTKAVDSSNNASNTVPSPIKQEEGLNSTVAEREETPAPTITEKDIIEAIGDGKVNIKEFGKFIRRKYPGAENKKLMFAIVKKLCRKVGNDHMELKKE	binds
Scp160p (protein, UniProt P06105 1-1222) MSEEQTAIDSPPSTVEGSVETVTTIDSPSTTASTIAATAEEHPQLEKKPTPLPSLKDLPSLGSNAAFANVKVSWGPNMKPAVSNSPSPSPSAPSLTTGLGAKRMRSKNIQEAFTLDLQSQLSITKPELSRIVQSVKKNHDVSVESTLSKNARTFLVSGVAANVHEAKRELVKKLTKPINAVIEVPSKCKASIIGSGGRTIREISDAYEVKINVSKEVNENSYDEDMDDTTSNVSLFGDFESVNLAKAKILAIVKEETKNATIKLVVEDEKYLPYIDVSEFASDEGDEEVKVQFYKKSGDIVILGPREKAKATKTSIQDYLKKLASNLDEEKVKIPSKFQFLIDAEELKEKYNVIVTFPSTPDDELVSFVGLRDKVGEAITYARSSSKSYVVESLDISKAHSKNLTHAKNLIMYFTKYSVLKGLEESHPNVKISLPSIQSLPTAETVTIHISAKSDEANDIKAVRKELISFVNNIPPSETLVITDLDYELFGGSIKHCLLASESSVAFVQFGDYYPNDNSILLVALTEDEDFKPSIEEIQASLNKANESLNSLRTKQNNMETKTYEFSEEVQDSLFKPSSATWKLIMEDISEQEGHLQIKLHTPEENQLTVRGDEKAAKAANKIFESILNSPSSKSKMTVNIPANSVARLIGNKGSNLQQIREKFACQIDIPNEENNNASKDKTVEVTLTGLEYNLTHAKKYLAAEAKKWADIITKELIVPVKFHGSLIGPHGTYRNRLQEKYNVFINFPRDNEIVTIRGPSRGVNKAHEELKALLDFEMENGHKMVINVPAEHVPRIIGKNGDNINDIRAEYGVEMDFLQKSTDPKAQETGEVELEITGSRQNIKDAAKRVESIVAEASDFVTEVLKIDHKYHKSIVGSGGHILREIISKAGGEEIRNKSVDIPNADSENKDITVQGPQKFVKKVVEEINKIVKDAENSVTKTIDIPAERKGALIGPGGIVRRQLESEFNINLFVPNKDDPSGKITITGAPENVEKAEKKILNEIIRENFDREVDVPASIYEYVSERGAFIQKLRMDLSVNVRFGNTSKKANKLARAPIEIPLEKVCGSTEGENAEKTKFTIEEVGAPTSSEEGDITMRLTYEPIDLSSILSDGEEKEVTKDTSNDSAKKEEALDTAVKLIKERIAKAPSATYAGYVWGADTRRFNMIVGPGGSNIKKIREAADVIINVPRKSDKVNDVVYIRGTKAGVEKAGEMVLKSLRR	binds
